This test can be described thus: qHTS Assay to Find Inhibitors of Chronic Active B-Cell Receptor Signaling. Particulars: ABC-DLBCL IkBa-CBG/CBR reporter, luminescence ratio (green luciferase fused to IkBa over red control in TMD8 lymphoma cells), 4 h. In a few lines: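 TMD8 ABC-DLBCL cells carrying doxycycline-inducible green luciferase fused to IkappaBalpha plus unfused red luciferase were exposed to compounds (up to 46 uM) for 4 hrs at 37C. Activity came from the overlap-corrected green/red luminescence ratio.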

The mark [1] stands for this setting: measured here: CBR red luminescence, cell number.
Where [2] appears, read: measured here: IkBa-CBG green luminescence.

Structures are written as SMILES. This is one part of the list. Further columns of the screen follow, without active or inactive calls. Most of these compounds were active or inconclusive in the main read-out, so they are no random draw. The note in brackets gives the kind of curve behind each potency; many fits are weak.

`Cc1ccc2nc3sc(C(=O)NCc4ccco4)c(N)c3cc2c1`: under setting [1], the AC50 is 1.46 µM [falling, partial curve, poor fit].

Consider `CC(=O)c1cccc(OCC(=O)N(C)CC(=O)NCc2ccco2)c1`, for which the AC50 under setting [1] was 5.8 µM [rising, partial curve, poor fit].

In the case of `COc1ccc(/C=N/NC(=O)c2cccc(COCC(F)(F)C(F)F)c2)cc1`, under setting [1], the AC50 was 9.2 µM [falling, partial curve].

Take `Nc1nc2cc3ccccc3cc2[nH]c1=O`: the half-maximal activity concentration (AC50) under setting [1] is 0.501 µM [falling, full curve].

For the molecule `COc1ccc(-c2nc(NC(C)=O)sc2-c2ccccc2)cc1`, the half-maximal activity concentration (AC50) under setting [1] was 11.2 µM [falling, partial curve, poor fit].

Consider `COc1ccc(/C=C/C(=O)N/C(=C\c2ccco2)C(=O)NCCc2nc3ccccc3[nH]2)cc1`, for which the AC50 under setting [1] was 29.1 µM [falling, single point].

For `CCOc1ccc(N(C)S(=O)(=O)c2ccc3[nH]cc(C(=O)NCC4CCCO4)c(=O)c3c2)cc1` (configuration not stated), the AC50 under setting [1] is 2.91 µM [rising, full curve, poor fit].

For `Oc1ccc(Br)cc1CNc1cnc2ccccc2c1`, under setting [1], the AC50 is 35.5 µM [rising, single point].

Turning to `COC(=O)c1ccc(CSc2n[nH]c(=S)s2)o1`, the AC50 under setting [1] was 25.9 µM [rising, partial curve, poor fit].

On to `CCOc1cc(NC(=S)NCCCN2CCOCC2)c(OCC)cc1NC(=O)C1CCCCC1`, for which the concentration at half-maximal activity (AC50) under setting [1] is 12.6 µM [rising, single point].

Take `CCOC(=O)C(NCc1ccco1)(NC(=O)c1ccc(OC)cc1)C(F)(F)F` (configuration not stated): the half-maximal activity concentration (AC50) under setting [1] was 15.8 µM [rising, partial curve, poor fit].

Consider `CCCCOc1ccc(OCCSc2nc3ccccc3n2CC(=O)O)cc1`, for which the AC50 runs as follows: under setting [1], 3.55 µM [falling, full curve, poor fit]; under setting [2], 0.891 µM [rising, full curve, poor fit].

As to `COc1ccccc1N(C)S(=O)(=O)c1ccc(C(=O)Nc2ccc(N3CCOCC3)cc2)cc1`, the AC50 under setting [1] is 4.47 µM [rising, single point].

As for `CCCCOc1ncnc2c1[nH]c1ccc(OC)cc12`, under setting [1], the half-maximal activity concentration (AC50) was 0.1 µM [rising, full curve, poor fit].

Consider `COc1ccc(-c2nc3n(c2C)Cc2ccccc2-3)cc1`, for which the half-maximal activity concentration (AC50) under setting [1] is 1 µM [rising, full curve, poor fit].

Take `N=c1c2c(ncn1Cc1ccco1)Oc1c(ccc3ccccc13)C2c1ccccc1` (configuration not stated): the AC50 reads like this: under setting [1], 6.51 µM [falling, full curve]; under setting [2], 5.17 µM [rising, full curve, poor fit].

Consider `COc1ccc(C(=O)/C=C/c2cccnc2)c(OC)c1`, for which, under setting [1], the concentration at half-maximal activity (AC50) is 7.94 µM [falling, partial curve].

Take `CCOC(=O)CSc1nc(-c2ccc3c(c2)OCO3)ccc1C#N`: the half-maximal activity concentration (AC50) under setting [1] was 35.5 µM [rising, single point].

On to `COCCOC(=O)c1c(C)oc2ccc(OCc3ccccc3)cc12`, for which the half-maximal activity concentration (AC50) under setting [1] was 1.64 µM [rising, full curve, poor fit].

For the molecule `C[n+]1nc(Nc2cccc3ccccc23)sc1-c1ccc(C(=O)O)cc1`, the AC50 under setting [1] is 8.91 µM [falling, partial curve].

For the molecule `COc1cc2oc(=O)cc(-c3ccc(-c4ccc(C)cc4)cc3)c2c(OC)c1OC`, the concentration at half-maximal activity (AC50) under setting [1] was 9.2 µM [rising, partial curve, poor fit].

In the case of `NC(=O)c1ccccc1NS(=O)(=O)c1ccc(F)cc1`, the concentration at half-maximal activity (AC50) under setting [1] is 17.8 µM [rising, single point].

Take `CC(=O)c1ccc(C(=O)N(Cc2cccnc2)c2nc3c(C)c(C)ccc3s2)cc1`: the AC50 under setting [1] is 3.98 µM [falling, single point].

Regarding `C=CCN(CC=C)C(=S)NC(=O)c1ccc(C)c(Br)c1`, the AC50 is, setting by setting: under setting [1], 25.9 µM [rising, single point]; under setting [2], 11.6 µM [falling, partial curve, poor fit].

For the molecule `Cc1cc(C(=O)OCC(=O)NC2CCS(=O)(=O)C2)c(C)n1-c1ccccc1` (configuration not stated), the AC50 under setting [1] is 32.6 µM [falling, single point].

Turning to `O=C(Nc1ccc(C(=O)N2CCCC2)cc1)c1ccccc1Br`, under setting [1], the concentration at half-maximal activity (AC50) was 35.5 µM [falling, single point].

`COCc1[nH]nc2c1C(c1sccc1C)C(C#N)=C(N)O2` (configuration not stated): under setting [1], the AC50 was 3.55 µM [falling, partial curve].

Take `O=C(N/N=C/c1cn(-c2ccccc2)nc1-c1cccs1)c1ccncc1`: under setting [1], the concentration at half-maximal activity (AC50) was 0.92 µM [rising, full curve, poor fit].

Consider `c1ccc2c(c1)CC/C2=N/Nc1nc2ccccc2[nH]1`, for which the AC50 under setting [1] is 10 µM [falling, partial curve, poor fit].

`O=C(/C=C\Nc1ccc2c(c1)OCO2)c1ccccn1`: the half-maximal activity concentration (AC50) under setting [1] was 1.78 µM [falling, full curve].

Take `COc1cccc(/C=N/NC(=O)CNC(=O)C(c2ccccc2)c2ccccc2)c1O`: the AC50 under setting [1] was 10 µM [falling, partial curve, poor fit].

Take `Cc1c(CC(=O)O)c(=O)oc2cc3occ(-c4ccc(F)cc4)c3cc12`: the AC50 under setting [1] is 0.112 µM [rising, full curve, poor fit].

As for `CCC(CC)C(=O)NCCCN1CCOCC1`, the AC50 under setting [1] was 2.59 µM [rising, partial curve, poor fit].

Turning to `CC(C)(C)OC(=O)NCCCC[C@H](NC(=O)c1nc[nH]c1C(=O)N1CCc2ccccc2C1)C(=O)OC(C)(C)C`, the AC50 under setting [1] is 0.794 µM [falling, partial curve, poor fit].

Consider `Cc1ccc2oc(=O)n(CCCOc3ccccc3)c2c1`, for which the AC50 under setting [1] is 17.8 µM [rising, partial curve, poor fit].

Turning to `CSc1nc2ccc(NS(=O)(=O)c3c(Cl)cccc3Cl)cc2s1`, the AC50 under setting [1] is 4.61 µM [falling, full curve].

Regarding `CC(=O)Nc1ccc(N/C=C/C(=O)c2ccc(C)cc2)cc1`, under setting [1], the concentration at half-maximal activity (AC50) is 4.47 µM [rising, partial curve, poor fit].

As for `COC(=O)c1ccc(NC(=O)Nc2ccccc2F)cc1`, under setting [1], the AC50 was 12.6 µM [falling, partial curve, poor fit].

As to `Cn1c(/C=N/Nc2nc3ccccc3[nH]2)nc2ccccc21`, the AC50 under setting [1] was 11.2 µM [falling, partial curve].

As to `NS(=O)(=O)c1ccc(NC2=CC(c3ccc([N+](=O)[O-])cc3)N(c3ccc(S(N)(=O)=O)cc3)C2=O)cc1` (configuration not stated), under setting [1], the AC50 was 35.5 µM [falling, single point].

In the case of `Fc1cccc2sc(Nc3nc4cc5c(cc4s3)OCO5)nc12`, the AC50 under setting [1] was 0.116 µM [rising, full curve, poor fit].

On to `CCc1ccccc1OCC(=O)N(CC)CC(=O)NCc1ccc(F)cc1`, for which the concentration at half-maximal activity (AC50) under setting [1] is 18.4 µM [falling, partial curve, poor fit].

As to `N/C(=N\c1nc(C(F)(F)F)cc(=O)[nH]1)Nc1ccc(Cl)cc1`, the AC50 under setting [1] was 6.51 µM [rising, single point].

`Cn1cc([N+](=O)[O-])c(C(=O)Nc2cnn(Cc3ccc(F)cc3)c2)n1`: under setting [1], the concentration at half-maximal activity (AC50) was 3.26 µM [falling, partial curve, poor fit].

Turning to `O=C(Nc1cccc(Cl)c1N1CCOCC1)c1cccs1`, the AC50 under setting [1] was 8.91 µM [falling, partial curve, poor fit].

With `CCc1cc(C(=O)NCCN(C)C)cs1`, the concentration at half-maximal activity (AC50) under setting [1] was 0.326 µM [rising, full curve, poor fit].

As to `N#Cc1cc2c(nc1SCC(N)=O)CCCCC2`, the AC50 under setting [1] is 20.6 µM [falling, partial curve].

Regarding `O=C(CCS(=O)(=O)c1ccccc1)Nc1ccc(-c2nc3ccccc3s2)c(O)c1`, the concentration at half-maximal activity (AC50) under setting [1] is 2.06 µM [falling, full curve].

For the molecule `CCOc1ccc(NC(=O)c2ccc(NC(=S)NC3CCCCC3)cc2)cc1`, the half-maximal activity concentration (AC50) under setting [1] is 7.08 µM [falling, partial curve].

`Cc1cc(=O)oc2c(C)c(OCC(=O)N3CCN(C(=O)C4COc5ccccc5O4)CC3)ccc12` (configuration not stated): under setting [1], the half-maximal activity concentration (AC50) is 31.6 µM [falling, single point].

Consider `O=c1oc2ccc(Cl)cc2nc1/C=C(\O)c1cccs1`, for which the half-maximal activity concentration (AC50) under setting [1] was 6.31 µM [rising, single point].

As to `CCOC(=O)C1(Cc2cccc(OC)c2)CCN(Cc2cccc(OC)c2O)CC1`, under setting [1], the concentration at half-maximal activity (AC50) was 1.58 µM [falling, partial curve, poor fit].

With `COc1ccc(S(=O)(=O)N2CCC(N3CCCC3)CC2)cc1`, the AC50 under setting [1] is 3.55 µM [falling, partial curve, poor fit].

In the case of `CC(C)OC(=O)c1ccc(NC(=O)c2cncc(Br)c2)cc1`, under setting [1], the concentration at half-maximal activity (AC50) is 1.58 µM [rising, full curve].

As to `CCOC(=O)C1=C(CC)Nc2ccccc2N/C1=N\S(=O)(=O)c1cc(Br)ccc1Br`, the AC50 under setting [1] is 11.2 µM [falling, single point].

For the molecule `CCn1c(SCC(=O)Nc2nc3ccccc3s2)nnc1-c1ccc(OC)cc1`, the half-maximal activity concentration (AC50) under setting [1] was 10.3 µM [falling, partial curve].

Turning to `c1cc(-c2noc(CC3CCCCC3)n2)ccn1`, the concentration at half-maximal activity (AC50) under setting [1] is 31.6 µM [rising, single point].

In the case of `O=C(N/N=C/c1ccc2nccnc2c1)c1ccccc1O`, the concentration at half-maximal activity (AC50) under setting [1] is 0.316 µM [falling, full curve].

For `N#Cc1cn(CCOc2ccc(F)cc2)c2ccccc12`, the concentration at half-maximal activity (AC50) under setting [1] is 32.6 µM [falling, single point].

Regarding `Cc1cccc2nc(C(=O)Nc3cc(Cl)ccc3-n3cncn3)cn12`, the AC50 under setting [1] is 6.51 µM [rising, single point].

Take `COC(=O)C1=C(C)NC(=S)N(C(C)=O)C1c1ccccc1` (configuration not stated): under setting [1], the concentration at half-maximal activity (AC50) is 11.6 µM [falling, partial curve, poor fit].

`O=C(/C=C/Nc1cccc(F)c1)c1ccco1`: the concentration at half-maximal activity (AC50) under setting [1] is 16.4 µM [falling, single point].

Take `Cc1ccc(NC2=C(CC(=O)O)C(c3ccccc3)N(c3ccc(C)cc3)C2=O)cc1` (configuration not stated): the AC50 under setting [1] was 10.3 µM [falling, partial curve, poor fit].

Consider `CCOC(=O)CC1C(=O)NCCN1S(=O)(=O)c1cc(Cl)c(Cl)cc1Cl` (configuration not stated), for which, under setting [1], the AC50 was 8.91 µM [rising, partial curve].
